No constants are given. Whether binding was seen depends on the method and setting. Some results given as binding are weak or reduced against the parent protein; the word gives no strength.
Target: T1, α-dystroglycan with the knock-in mutation T190M, from Dag1 T190M mouse skeletal muscle (mouse) (UniProt Q62165)
T1 sequence (chain, matriglycan shorter than wild type (α-DG laminin-binding band at ~100-150 kDa)): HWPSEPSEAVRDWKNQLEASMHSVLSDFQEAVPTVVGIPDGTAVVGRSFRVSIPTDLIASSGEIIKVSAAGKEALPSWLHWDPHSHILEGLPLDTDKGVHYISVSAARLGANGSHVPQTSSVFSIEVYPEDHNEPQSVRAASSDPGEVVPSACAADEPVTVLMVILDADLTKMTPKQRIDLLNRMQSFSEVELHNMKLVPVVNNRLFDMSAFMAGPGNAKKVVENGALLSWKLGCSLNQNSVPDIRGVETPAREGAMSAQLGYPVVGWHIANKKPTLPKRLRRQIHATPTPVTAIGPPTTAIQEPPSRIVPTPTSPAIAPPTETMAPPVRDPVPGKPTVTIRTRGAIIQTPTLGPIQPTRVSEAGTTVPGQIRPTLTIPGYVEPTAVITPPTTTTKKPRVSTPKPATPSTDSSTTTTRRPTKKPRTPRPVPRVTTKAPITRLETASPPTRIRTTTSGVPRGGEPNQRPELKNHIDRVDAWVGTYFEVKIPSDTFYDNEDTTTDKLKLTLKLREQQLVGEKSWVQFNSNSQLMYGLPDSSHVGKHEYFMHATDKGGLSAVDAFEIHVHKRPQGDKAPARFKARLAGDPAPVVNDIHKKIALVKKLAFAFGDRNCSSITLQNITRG
Assay: far-Western, overlay or dot blot

binding: binds
Substance: laminin-111 (mouse Engelbreth-Holm-Swarm (EHS) laminin) (from UniProt P19137 25-3083; P02469 22-1786; P02468 34-1607) (complex)

Reference: publication doi:10.1101/2022.08.09.502851
